Literature values, collected in patent US8163312B2, “Herbal formulation for prevention and treatment of diabetes and associated complications” (Innoveda Biological Solutions (P) Ltd., priority 2008, dated 2012).
At least one structure is not confirmed: it was looked up by name or label, or the drawing left a doubt.

System: mice
Details: sanjoinine-A given as one unit

In the case of COc1cc2c3c(c1OC)-c1ccccc1C[C@H]3N(C)CC2 [nuciferine], the relative sedative potency is listed as 13.
